Drawing on paper PMC9295053, this text covers binding for 1 substance.

Sequences of proteins named here, by UniProt entry; tags and fusion partners are left off. A change or cut given only in a name is not applied to a line headed by its entry. A line that says so, or that is headed by a name, gives the form on record, which may keep a tag or linker.
GAC (bait of the immunoprecipitation followed by mass spectrometry) (O94925, form named): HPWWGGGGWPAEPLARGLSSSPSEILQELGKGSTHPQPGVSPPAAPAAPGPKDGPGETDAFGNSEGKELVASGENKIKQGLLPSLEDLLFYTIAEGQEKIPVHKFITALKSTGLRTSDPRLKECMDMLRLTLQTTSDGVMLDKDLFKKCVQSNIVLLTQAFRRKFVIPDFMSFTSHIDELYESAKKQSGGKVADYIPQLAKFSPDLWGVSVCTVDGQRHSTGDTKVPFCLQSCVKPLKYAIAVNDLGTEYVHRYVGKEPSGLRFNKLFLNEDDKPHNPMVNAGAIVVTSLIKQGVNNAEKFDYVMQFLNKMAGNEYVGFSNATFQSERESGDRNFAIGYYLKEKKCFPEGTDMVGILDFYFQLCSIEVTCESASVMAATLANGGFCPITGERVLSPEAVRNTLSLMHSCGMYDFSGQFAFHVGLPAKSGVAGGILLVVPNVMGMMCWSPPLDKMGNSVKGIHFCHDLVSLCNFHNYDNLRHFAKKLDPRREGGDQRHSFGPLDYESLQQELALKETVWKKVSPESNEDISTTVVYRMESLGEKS
UniProt P19474: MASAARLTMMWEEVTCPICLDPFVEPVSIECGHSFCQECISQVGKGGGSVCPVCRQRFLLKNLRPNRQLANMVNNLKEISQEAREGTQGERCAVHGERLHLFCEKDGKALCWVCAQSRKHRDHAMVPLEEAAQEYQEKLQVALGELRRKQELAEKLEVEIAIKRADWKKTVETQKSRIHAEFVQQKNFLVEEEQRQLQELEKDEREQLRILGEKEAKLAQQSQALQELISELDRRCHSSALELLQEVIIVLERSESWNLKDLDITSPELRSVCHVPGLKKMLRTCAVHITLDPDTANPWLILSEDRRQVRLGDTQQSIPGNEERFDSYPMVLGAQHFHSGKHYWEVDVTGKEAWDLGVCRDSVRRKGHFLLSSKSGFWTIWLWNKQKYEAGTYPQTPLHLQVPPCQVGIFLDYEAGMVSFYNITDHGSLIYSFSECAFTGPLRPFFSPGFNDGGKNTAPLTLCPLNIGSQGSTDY

This experiment has as its target GAC (bait of the immunoprecipitation followed by mass spectrometry) (human) (UniProt O94925). The experiment can be described thus: affinity purification with mass spectrometry; immunoprecipitation of GAC followed with mass spectrometry analysis; cells and antibody not stated.

Results are given in words; binding and its absence hold for the method and conditions named. In cells and extracts the contact can be indirect. Here binding means that the protein was enriched with, or labelled near, the bait; the list need not be complete.

Take “TRIM21 (Tripartite motif containing-21), identified by mass spectrometry in the GAC immunoprecipitate (from UniProt P19474 1-475) (enzyme)”: the binding result is “binds”.
